## Primary screen of a compound library

Source: ChEMBL document CHEMBL3988442, “University of Dundee, Small-Polar-MMV Screening Library” (2021).

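Whole-parasite assay of Trypanosoma brucei over 72 hours; the read-out is not stated. Compounds at 30 µM. Direction is inferred from retests: higher values go with stronger inhibition. Values scatter widely below zero; nearly all retest evidence comes from the higher of the two concentrations used. Size under these conditions: about 64,000 compounds, about 940 of them at 50% or above in at least one test.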

Results are given as percent effect.
The controls that fix the scale are not given in the record; negative values are as filed.
The compounds are a random part of those screened.

{"compound": "Cc1cc(C)c2nc(CN3CCOCC(O)C3)cc(O)c2c1", "stereo": "stereo not shown", "Percent Effect": -18.71}
{"compound": "Cc1cc(C)c(CNC(=O)N2CCNC(=O)C2)c(=O)[nH]1", "Percent Effect": -49.51}
{"compound": "O=C1CN(C(=O)c2cc(-c3ccco3)nc3c(Cl)cccc23)CCN1", "Percent Effect": -121.3}
{"compound": "[H][C@@]12CN(C(=O)CCOC)C[C@]1([H])C(=O)N(Cc1cccc(C)c1)C2", "Percent Effect": -13.88}
{"compound": "COc1nn(C)cc1C(=O)NCC1(O)CCOCC1", "Percent Effect": -21.13}
{"compound": "c1ccc2[nH]c(C3CCN(Cc4noc(C5CC5)n4)CC3)cc2c1", "Percent Effect": 13.37}
{"compound": "Cc1cc(C)n(CC2CCCN2C(=O)c2ccc3[nH]nnc3c2)n1", "stereo": "stereo not shown", "Percent Effect": -75.24}
{"compound": "Cc1nc(COCc2cnc3n2CCN(C(=O)C2CC2)C3C)cs1", "stereo": "stereo not shown", "Percent Effect": -21.89}
{"compound": "O=c1[nH]c(COc2ccccc2Cl)nc2c1CCNC2", "Percent Effect": 13.98}
{"compound": "COCCO[C@H]1CCN(Cc2ccoc2)[C@H]1Cc1cccnc1", "Percent Effect": -29.58}
{"compound": "CCOC(=O)C(C)NC(=O)CCc1ccc(F)cc1", "stereo": "stereo not shown", "Percent Effect": -1.915}
{"compound": "CCOCCN1CCN(CC(=O)NC2(C#N)CCCC2)CC1CC", "stereo": "stereo not shown", "Percent Effect": -56.16}
{"compound": "COC(=O)COn1c(OC)nc2ccccc2c1=O", "Percent Effect": -56.02}
{"compound": "COCCn1cc(C(=O)N2CCCC2c2cccs2)c2ccccc21", "stereo": "stereo not shown", "Percent Effect": -9.672}
{"compound": "[H][C@]12CCN[C@@]1([H])CN(C(=O)CC(F)(F)F)C2", "Percent Effect": 15.05}
{"compound": "Cc1ccc2oc(SCC(N)=O)nc2n1", "Percent Effect": -7.941}
{"compound": "CCc1nnc2n1CC(CNc1cnc3ccccc3n1)CC2", "stereo": "stereo not shown", "Percent Effect": -42.39}
{"compound": "COCC(O)CN(C)C(=O)c1cccc(-c2csc(C)n2)c1", "stereo": "stereo not shown", "Percent Effect": -39.59}
{"compound": "CC(C)NC(=O)CCNC(=O)Nc1cnn(-c2ccccc2Cl)c1", "Percent Effect": -4.292}
{"compound": "CCC(CO)N(Cc1ccccn1)Cc1ccc(-c2ccn[nH]2)s1", "stereo": "stereo not shown", "Percent Effect": 13.96}
{"compound": "Cc1ccc2c(c1)OCCCC2NC1CCN(C)CC1", "stereo": "stereo not shown", "Percent Effect": -15.19}
{"compound": "CN1CCC(NC(=O)CC2CN(Cc3ccccc3)CCO2)CC1", "stereo": "stereo not shown", "Percent Effect": 7.292}
{"compound": "COc1ccc(C2CCN(S(=O)(=O)CCCC#N)CC2)cc1", "Percent Effect": -44.64}
{"compound": "COc1ccccc1N1CCC(N2CCOC(C(F)(F)F)C2)CC1", "stereo": "stereo not shown", "Percent Effect": -32.58}
{"compound": "C=C(C)CN1CCC(Nc2nc(C)ns2)CC1", "Percent Effect": 4.445}
{"compound": "COCc1noc(CCNC(=O)c2ccc(C3CCCO3)s2)n1", "stereo": "stereo not shown", "Percent Effect": -13.99}
{"compound": "O=C(NCc1cn2c(n1)SCC2)c1ccc(CN2CCCCC2)cc1", "Percent Effect": -1.641}
{"compound": "Cc1cc(N(C)CCCn2cccn2)nc(N)n1", "Percent Effect": -19.31}
{"compound": "CCOC(=O)Cn1nnnc1-c1ccccc1", "Percent Effect": -33.85}
{"compound": "COc1ccccc1C(C)CC(=O)N1CCCS1(=O)=O", "stereo": "stereo not shown", "Percent Effect": 9.253}
{"compound": "O=C(O)C(F)(F)F.[H][C@@]12CN(c3nnc(C)s3)C[C@@H](C(=O)NCC3CC3)[C@]1([H])CCO2", "Percent Effect": -61.88}
{"compound": "C[C@@H]1CN(C(=O)[C@H]2CCCO2)C[C@]12CCN(c1ccsc1)C2=O", "Percent Effect": -42.81}
{"compound": "O=C(COc1ccc2c(c1)CCC2)NS(=O)(=O)c1cncc(Br)c1", "Percent Effect": -10.57}
{"compound": "Cn1ncc2c(=O)[nH]c(CN3CCC(Cc4ccccc4)CC3)nc21", "Percent Effect": -1.414}
{"compound": "CC(Nc1ccc2c(c1)CCC2)c1nc(C2CC2)no1", "stereo": "stereo not shown", "Percent Effect": 6.698}
{"compound": "CCc1nnc2n1CCN(C(=O)c1csc(-c3cnn(C)c3)n1)C2", "Percent Effect": -22.62}
{"compound": "CC(C)Nc1cc(N2CCC(n3cc(CCO)nn3)CC2)ncn1", "Percent Effect": -43.45}
{"compound": "Cc1cc(C(C)(O)CNC(=O)C2(C)CCCC2)c(C)o1", "stereo": "stereo not shown", "Percent Effect": -33.58}
{"compound": "COc1ccccc1CC(=O)N1CCCC(c2cc(C)[nH]n2)C1", "stereo": "stereo not shown", "Percent Effect": -15.91}
{"compound": "CN(C)c1nccnc1C1CCCN(c2cnccn2)C1", "stereo": "stereo not shown", "Percent Effect": 10.67}
{"compound": "[H][C@@]12CNC[C@]1([H])[C@H]2CN1CCC(c2nnc(Cn3cncn3)n2CC)CC1", "Percent Effect": -4.342}
{"compound": "O=S(=O)(C1CC1)N1CCC2(CC1)CC(Oc1ccccn1)CO2", "stereo": "stereo not shown", "Percent Effect": -52.6}
{"compound": "c1cncc(-c2noc(CN3CCCC3Cn3cccn3)n2)c1", "stereo": "stereo not shown", "Percent Effect": 7.253}
{"compound": "CC(C)n1c(=O)nc2n1C(=O)N(c1ccc(Cl)cc1)C2", "Percent Effect": -40.46}
{"compound": "Cc1cc(CN2CCC(C3CCN(Cc4cccnc4)CC3)C2)[nH]n1", "stereo": "stereo not shown", "Percent Effect": -26.82}
{"compound": "CC(C)C(C(=O)NCC1CC1)n1cnc2cc(F)c(F)cc21", "stereo": "stereo not shown", "Percent Effect": -12.92}
{"compound": "c1nc(N2CCN(Cc3nnnn3C3CC3)CC2)c2sccc2n1", "Percent Effect": -31.88}
{"compound": "CC(NC(=O)NCC(C)(C)O)c1ccc(-c2ccncc2)cc1", "stereo": "stereo not shown", "Percent Effect": -24.4}
{"compound": "Cc1ccc(N2CCCN(C(=O)c3cn(C)c4ccccc34)CC2)nn1", "Percent Effect": -6.754}
{"compound": "CNc1nnc(SCc2nnc(C(C)(C)C)o2)s1", "Percent Effect": -84.12}
{"compound": "CN(C(=O)Cn1nc(-c2ccccc2F)ccc1=O)C1CCS(=O)(=O)C1", "stereo": "stereo not shown", "Percent Effect": -35.79}
{"compound": "CC1CCN(CC2CCN(C(=O)c3c[nH]c4ncccc34)CC2)CC1", "Percent Effect": -35.67}
{"compound": "OCc1csc(N2CCCC(COc3cccc(F)c3)C2)n1", "stereo": "stereo not shown", "Percent Effect": -13.56}